# Results: article PMC5923425, “Structural analysis of human ARS2 as a platform for co-transcriptional RNA sorting” (Nature Communications, 2018)
# Protein sequences, listed by entry. Tags and fused reporters are not part of them. Lines headed by an entry give the natural chain unless they say otherwise; changes in a name come on top. Residues count along the entry.
# UniProt Q9UKL3, residues 903-943: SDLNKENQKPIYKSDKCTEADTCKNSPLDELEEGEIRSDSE
# UniProt Q09161: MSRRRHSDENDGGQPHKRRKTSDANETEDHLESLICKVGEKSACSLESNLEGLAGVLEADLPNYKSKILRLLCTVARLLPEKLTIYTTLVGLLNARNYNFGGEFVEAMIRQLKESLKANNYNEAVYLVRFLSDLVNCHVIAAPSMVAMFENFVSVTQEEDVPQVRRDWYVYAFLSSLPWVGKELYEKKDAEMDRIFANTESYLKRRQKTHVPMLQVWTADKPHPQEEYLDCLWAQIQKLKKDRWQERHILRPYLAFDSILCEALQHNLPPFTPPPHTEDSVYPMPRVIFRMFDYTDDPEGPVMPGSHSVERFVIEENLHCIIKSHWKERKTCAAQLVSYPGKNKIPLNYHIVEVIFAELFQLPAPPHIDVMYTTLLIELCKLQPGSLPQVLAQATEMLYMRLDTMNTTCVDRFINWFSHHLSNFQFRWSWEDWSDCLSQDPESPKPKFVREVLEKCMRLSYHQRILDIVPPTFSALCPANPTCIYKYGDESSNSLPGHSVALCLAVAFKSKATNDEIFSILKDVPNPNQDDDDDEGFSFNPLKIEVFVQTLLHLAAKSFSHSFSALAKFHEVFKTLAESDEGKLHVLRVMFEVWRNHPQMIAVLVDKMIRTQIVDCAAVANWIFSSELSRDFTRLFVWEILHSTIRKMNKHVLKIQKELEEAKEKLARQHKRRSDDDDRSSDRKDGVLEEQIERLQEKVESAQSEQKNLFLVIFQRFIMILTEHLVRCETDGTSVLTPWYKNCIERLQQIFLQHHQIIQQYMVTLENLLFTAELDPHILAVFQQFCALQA
# No constants are given. Whether binding was seen depends on the method and setting. For some assays here: Binding can be weak; no strength is given.
# T1: NCBP3^1–282 (human) (UniProt Q53F19)
# T1 sequence: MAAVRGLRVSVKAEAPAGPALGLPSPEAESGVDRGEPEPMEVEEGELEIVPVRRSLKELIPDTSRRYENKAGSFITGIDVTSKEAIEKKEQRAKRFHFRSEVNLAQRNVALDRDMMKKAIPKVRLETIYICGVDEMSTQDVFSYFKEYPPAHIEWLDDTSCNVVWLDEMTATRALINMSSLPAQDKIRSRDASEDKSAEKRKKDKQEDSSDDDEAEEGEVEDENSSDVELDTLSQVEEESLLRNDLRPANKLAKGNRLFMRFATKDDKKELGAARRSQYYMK
# T2: FARB (FLASH–ARS2-binding region) peptide of FLASH, residues 931–943
# T2 sequence (peptide): DELEEGEIRSDSE
# B1: full-length NCBP3 (residues 1–620) (natural protein, human, UniProt Q53F19-1 1-620, looked up)
# chain: MAAVRGLRVSVKAEAPAGPALGLPSPEAESGVDRGEPEPMEVEEGELEIVPVRRSLKELIPDTSRRYENKAGSFITGIDVTSKEAIEKKEQRAKRFHFRSEVNLAQRNVALDRDMMKKAIPKVRLETIYICGVDEMSTQDVFSYFKEYPPAHIEWLDDTSCNVVWLDEMTATRALINMSSLPAQDKIRSRDASEDKSAEKRKKDKQEDSSDDDEAEEGEVEDENSSDVELDTLSQVEEESLLRNDLRPANKLAKGNRLFMRFATKDDKKELGAARRSQYYMKYGNPNYGGMKGILSNSWKRRYHSRRIQRDVIKKRALIGDDVGLTSYKHRHSGLVNVPEEPIEEEEEEEEEEEEEEEEDQDMDADDRVVVEYHEELPALKQPRERSASRRSSASSSDSDEMDYDLELKMISTPSPKKSMKMTMYADEVESQLKNIRNSMRADSVSSSNIKNRIGNKLPPEKFADVRHLLDEKRQHSRPRPPVSSTKSDIRQRLGKRPHSPEKAFSSNPVVRREPSSDVHSRLGVPRQDSKGLYADTREKKSGNLWTRLGSAPKTKEKNTKKVDHRAPGAEEDDSELQRAWGALIKEKEQSRQKKSRLDNLPSLQIEVSRESSSGSEAES
# notes: human NCBP3, full length, residues 1-620, cloned into pFASTBac HTb; also called NCBP3^1–620; source: High Five insect cells, purified; not shown: His6, N-terminal, cleaved
# Columns and labels:
# GST–FLASH^903–943 = GST–FLASH^903–943 (UniProt Q9UKL3); experiment: pull-down; GST–FLASH 903–943 (or GST as control) immobilised on glutathione sepharose, incubated with purified ARS2 constructs 30 min at 10 °C; flow-through, wash and elution on Coomassie-stained SDS-PAGE; both purified
# NCBP3^1–282 (human) [1] = biological target: T1, NCBP3^1–282 (human); experiment: pull-down; purified recombinant NCBP3 constructs immobilised on m7GTP sepharose, incubated with CBP80 and/or wild type or mutant ARS2; eluted fractions on Coomassie-stained SDS-PAGE; both purified
# [2] = biological target: T2, FARB (FLASH–ARS2-binding region) peptide of FLASH, residues 931–943; experiment: ITC; MicroCal ITC200, 25 °C, ARS2 constructs with FLASH peptides; high salt (HS): buffer containing 250 mM NaCl; single-site fit; which partner was injected is not told; both purified
# NCBP3^1–282 (human) [3] = biological target: T1, NCBP3^1–282 (human); experiment: ITC; MicroCal ITC200, 25 °C, ARS2 constructs with NCBP3 1–282; buffer containing 250 mM NaCl; injections of 2.5 µL; both purified
# [4] = biological target: B1; experiment: pull-down; purified recombinant NCBP3 constructs immobilised on m7GTP sepharose, incubated with CBP80 and/or wild type or mutant ARS2; eluted fractions on Coomassie-stained SDS-PAGE; both purified
# [5] = biological target: B1; experiment: SEC; purified proteins mixed, Superdex 200, 120 mM NaCl, 1 mM TCEP, 20 mM HEPES pH 7.8; in the absence of m7GTP; fractions on SDS-PAGE; both purified
# [6] = biological target: nuclear cap-binding complex (CBC): CBP20 with CBP80ΔNLS (human); experiment: SEC; CBC, NCBP3 and ARS2 147–871 mixed in the presence of m7GTP, Superdex 200, 120 mM NaCl, 1 mM TCEP, 20 mM HEPES pH 7.8; fractions on SDS-PAGE; both purified
# [7] = biological target: nuclear cap-binding complex (CBC): CBP20 with CBP80ΔNLS (human); experiment: SEC; purified proteins mixed, Superdex 200, 120 mM NaCl, 1 mM TCEP, 20 mM HEPES pH 7.8; in the absence of m7GTP; fractions on SDS-PAGE; both purified
Molecule,binding (NCBP3^1–282 (human) [1]),binding [4],binding [6],also measured
ARS2^(147–871 Δ694–742GSG) (from UniProt Q9BXP5-4) (domain or fragment),no binding,–,–,binding (GST–FLASH^903–943): no binding; binding [2]: no binding; binding (NCBP3^1–282 (human) [3]): no binding
ARS2^171–270+408–763ΔloopAΔloopB (from UniProt Q9BXP5-4) (domain or fragment),–,binds,–,–
CBP80ΔNLS (from UniProt Q09161),no binding,binds,–,binding [5]: binds
B1,–,–,binds,binding [7]: binds
"ARS2^147–871 (domain or fragment, UniProt Q9BXP5-4 147-871) PVMKTFKEFLLSLDDSVDETEAVKRYNDYKLDFRRQQMQDFFLAHKDEEWFRSKYHPDEVGKRRQEARGALQNRLRVFLSLMETGWFDNLLLDIDKADAIVKMLDAAVIKMEGGTENDLRILEQEEEEEQAGKPGEPSKKEEGRAGAGLGDGERKTNDKDEKKEDGKQAENDSSNDDKTKKSEGDGDKEEKKEDSEKEAKKSSKKRNRKHSGDDSFDEGSVSESESESESGQAEEEKEEAEALKEKEKPKEEEWEKPKDAAGLECKPRPLHKTCSLFMRNIAPNISRAEIISLCKRYPGFMRVALSEPQPERRFFRRGWVTFDRSVNIKEICWNLQNIRLRECELSPGVNRDLTRRVRNINGITQHKQIVRNDIKLAAKLIHTLDDRTQLWASEPGTPPLPTSLPSQNPILKNITDYLIEEVSAEEEELLGSSGGAPPEEPPKEGNPAEINVERDEKLIKVLDKLLLYLRIVHSLDYYNTCEYPNEDEMPNRCGIIHVRGPMPPNRISHGEVLEWQKTFEEKLTPLLSVRESLSEEEAQKMGRKDPEQEVEKFVTSNTQELGKDKWLCPLSGKKFKGPEFVRKHIFNKHAEKIEEVKKEVAFFNNFLTDAKRPALPEIKPAQPPGPAQSLTPGLPYPHQTPQGLMPYGQPRPPILGYGAGAVRPAVPTGGPPYPHAPYGAGRGNYDAFRGQGGYPGKPRNRMVRGDPRAIVEYRDLDAPDDVDFF",–,–,binds,–
